## Percent effect of library compounds

Measurements from “University of Dundee, Small-Polar-MMV Screening Library” (2021), ChEMBL document CHEMBL3988442.

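Assay of Toxoplasma gondii numbers, read through their beta-galactosidase reporter with a colour substrate. Tested at 50 µM. Higher reads as fewer parasites (inferred from which compounds were picked for retests). About 18,000 compounds were tested under these conditions; 0.94% (about 170) showed 50% or more at least once.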

Results are given as percent effect. The controls that fix the scale are not given in the record; negative values are as filed. Compounds were drawn at random from those tested, without regard to their results.

structure | effect
NC1CCN(Cc2cscn2)CC1 | 22.06
COc1ncc(C)cc1NC(=O)c1ccc(C)[nH]c1=O | 2.052
COC(=O)c1cc(Br)cc(S(N)(=O)=O)c1Cl | -6.654
CC(=O)N1CCN(CCNC(=O)Nc2cn[nH]c2)CC1 | 1.389
COCCn1cncc1CO | 5.728
O=C(C1CCCCO1)N1CCN(c2ccncc2)CC1 (centres undefined) | -9.663
Cc1cc(NC2(CO)CCC2)n2ncnc2n1 | 16.78
N#Cc1ncc(N)cc1Cl | 28.64
NC(=O)c1nccn1Cc1ccccc1 | -4.664
CN(C)c1ccc(CNC(=O)CSc2nncs2)cc1 | 9.291
CCOc1ccncc1S(N)(=O)=O | -14.93
COc1cc(NCC(C)C)ccn1 | -6.346
CCc1nc(CNC(=O)Cc2nonc2C)cs1 | 8.061
CN(C)C(=O)C1CCCN1c1cccc(C(F)(F)F)n1 (centres undefined) | -13.47
CC(C)C[C@@H](N)C(=O)NCc1ccc2nsnc2c1 | 23.43
Cc1cc(C)c(CNC(=O)CCc2nccs2)c(=O)[nH]1 | -15.8
CC(=O)c1ccc(C(=O)NCCN2CCOCC2)s1 | -13.89
CN(C)C1CCN(C(=O)c2ccccn2)CC1 | 14.23
O=C(NCCO)c1ccc(OCc2cccs2)cc1 | -7.491
CCOCCOCC(O)CN (centres undefined) | -6.718
CCCNC(=O)C[S+]([O-])Cc1cccc(Cl)c1 (centres undefined) | -9.147
COCC1CCCN(Cc2nnc(C(C)C)o2)C1 (centres undefined) | 8.544
C[C@@H](N)C(=O)NCc1cc2cc(Cl)ccc2[nH]1 | 22.19
CC(N)c1ccc(NC(=O)c2ccncc2)cc1 (centres undefined) | 23.94
Cn1cccc1C(=O)Nc1ccc(C(N)=O)cc1 | 12.56
COCCN1CCC(c2ccn[nH]2)CC1 | -6.586
COc1ccc(C)cc1CCN | -6.732
O=C(Nc1nncs1)c1cc(F)cc(F)c1 | -0.1745
COc1cc(NCc2cc[nH]n2)cc(OC)c1 | 2.755
CC(C)CC(O)CNC(=O)CN1CCCCC1=O (centres undefined) | 2.27
CCN1CCN(C(=O)c2occc2C)CC1(C)C | 1.891
CCOC(=O)C(C)Nc1ccc(CC(=O)N(C)C)cc1 (centres undefined) | -29
C[S+]([O-])c1nncn1CCCOc1ccc(C#N)cc1 (centres undefined) | -17.63
CCC(NC(=O)CCCc1cn[nH]c1)[C@H]1C[C@H](O)C1 (some centres undefined) | 10.48
COc1c(CNC(=O)c2cc(Br)c[nH]2)c(C)nn1C | 3.154
CN(C)C(=O)c1cccc(N)n1 | -3.605
COCCOCC(=O)N(C)C(C)c1ccncn1 (centres undefined) | -1.481
O=C(C1CCC1)C1CC1 | -22.59
CC(C)(CO)NCC(O)c1cccc(F)c1 (centres undefined) | 95.56
CN(CCC#N)C(=O)CN1CCc2ccccc2C1 | 1.624
O=C1CCN(CC(O)c2ccccc2F)CCN1 (centres undefined) | 6.948
CC(C)c1nsc(N2CCOCC2C)n1 (centres undefined) | 16.55
Cc1nn(CC(C)C)c(C)c1N | -20.56
Cc1cnn(CC(C)NCCS(C)(=O)=O)c1 (centres undefined) | -3.263
CS(=O)(=O)CC(=O)NCCc1nc2ccccc2o1 | -0.02657
C=C(C)CN(CC)C(=O)CN1CCN(C(C)=O)CC1 | 6.582
CC(C)(C)[C@H](N)C(=O)N1CCC(N2CCCC2=O)CC1 | 4.777

Once more, the final 3:

{"structure": "CS(=O)(=O)CC(=O)NCCc1nc2ccccc2o1", "effect": -0.02657}
{"structure": "C=C(C)CN(CC)C(=O)CN1CCN(C(C)=O)CC1", "effect": 6.582}
{"structure": "CC(C)(C)[C@H](N)C(=O)N1CCC(N2CCCC2=O)CC1", "effect": 4.777}